Data as given in PubChem BioAssay AID1259405 (NCATS, 2018)
This is one part, drawn at random, of about 50,000 reagents. About 4,000 of all reagents (8%) count as active. 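Mouse siRNA library applied to hamster cells; one well for each siRNA.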 Reagents against one gene are numbered here. Reagent sequences are not shown.

Test: 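Knock-downs that lift recombinant protein yield in hamster ovary cells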 (primary screen)
System: Chinese hamster CHO-K1 ovary cells with stable secreted eGFP expression
Reagent: single siRNA against mouse genes, 0.8 pmol siRNA per well (2 µl of 400 nM stock)
Duration: 3 days
Read-out: 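Per-well intracellular GFP measured by laser scanning cytometry, plus viability from ATP luminescence, each relative to plate median of non-targeting control wells, in %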
Scale: GFP, % of control: higher = more GFP per well, higher productivity; viability (ATP), % of control: higher = more viable cells (more ATP)
Rule for the call: 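Called active when intracellular GFP, relative to negative control, is at or above 120%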

gene knocked down,reagent,"GFP, % of control","viability (ATP), % of control",outcome
Trim23,1,117,110,inactive
Trim23,2,101,81.1,inactive
Trim23,3,67.6,59.5,inactive
Trmt9b,1,98.8,70.2,inactive
Trmt9b,2,85.3,91,inactive
Trmt9b,3,135,124,active
Ppara,1,103,74.5,inactive
Ppara,2,81,99.9,inactive
Ppara,3,79.9,82.2,inactive
Utp14b,1,52.5,47.3,inactive
Utp14b,2,68.5,82.6,inactive
Utp14b,3,81.1,88.3,inactive
Vsx1,1,72.2,93.6,inactive
Vsx1,2,79.4,86,inactive
Krt25,1,59.8,68.8,inactive
Krt25,2,62.8,92.9,inactive
Krt25,3,23.8,26.6,inactive
Ftsj1,1,120,108,active
Ftsj1,2,87.7,83.5,inactive
Ftsj1,3,49.8,65.3,inactive
Klk1b7-ps,1,157,116,active
Klk1b7-ps,2,56.9,37.2,inactive
Klk1b7-ps,3,109,80.2,inactive
Nme5,1,90.3,81.3,inactive
Vmn1r56,1,71.7,60.2,inactive
Vmn1r56,2,75.5,58.9,inactive
Vmn1r56,3,62.2,70.1,inactive
Acvr2b,1,82.8,80.5,inactive
F7,1,113,62.1,inactive
F7,2,97.2,67.8,inactive
F7,3,98.2,63.2,inactive
Slc7a4,1,57.3,53.6,inactive
Slc7a4,2,45.4,42,inactive
Slc7a4,3,79.8,93.5,inactive

Records listed so far whose target name begins with P or p (3):
gene knocked down,reagent,"GFP, % of control","viability (ATP), % of control",outcome
Ppara,1,103,74.5,inactive
Ppara,2,81,99.9,inactive
Ppara,3,79.9,82.2,inactive

The results go on:
gene knocked down,reagent,"GFP, % of control","viability (ATP), % of control",outcome
Spata33,1,56.1,48.4,inactive
Spata33,2,118,86.2,inactive
Spata33,3,71.2,86.6,inactive
Msh4,1,63.5,83.8,inactive
Msh4,2,87.1,59.3,inactive
Msh4,3,67.4,47.4,inactive
Rab23,1,131,98.5,active
Rab23,2,38,71.8,inactive
Rab23,3,15.1,16.8,inactive
Scarb1,1,113,123,inactive
Scarb1,2,74.6,69.8,inactive
Scarb1,3,63.2,93.6,inactive
Borcs7,1,72.3,97.5,inactive
Borcs7,2,65.4,98.6,inactive
Borcs7,3,95.8,118,inactive
Tmem100,1,64.2,83.9,inactive
Tmem100,2,93.7,94.7,inactive
Tmem100,3,43,69.4,inactive
Cplx3,1,54,76,inactive
Cplx3,2,42.2,71.3,inactive
Cplx3,3,77.9,82.2,inactive
Bgn,1,91.3,96.6,inactive
Bgn,2,82.6,82.1,inactive
Bgn,3,43.3,39,inactive
Sec22b,1,43.8,58.9,inactive
Sec22b,2,78,45.3,inactive
Sec22b,3,105,89.4,inactive
Hsd17b2,1,99.8,74.1,inactive
Hsd17b2,2,68.3,25.3,inactive
Hsd17b2,3,63.1,70.4,inactive
Cxcl1,1,72.1,73.1,inactive
Cxcl1,2,84.7,75.2,inactive
Cxcl1,3,90.7,46.6,inactive
Akap3,1,74.7,84.9,inactive
Akap3,2,98.3,97.7,inactive
Nlrc4,1,65.1,66.7,inactive
Nlrc4,2,77.6,51.8,inactive
Nlrc4,3,72.8,68.1,inactive
Nmi,1,64,74,inactive
Nmi,2,145,136,active
Plppr3,1,89.2,56.8,inactive
Plppr3,2,84.3,79.6,inactive
Plppr3,3,81.8,91.7,inactive
Arl6ip1,1,26.6,9.67,inactive
Arl6ip1,2,65,78.8,inactive
Arl6ip1,3,90.3,93.5,inactive
Nudcd3,1,82.9,92.4,inactive
Nudcd3,2,53.8,60,inactive
Nudcd3,3,54.9,88.7,inactive
Slc37a1,1,105,96.5,inactive
Slc37a1,2,48.2,42.4,inactive
Slc37a1,3,59.9,67.2,inactive
